Data as given in patent US12233115B2 (Extend Biosciences, Inc., priority 2022, dated 2025).

Experiment: general procedure: Fmoc solid-phase peptide synthesis; Ramage resin (tricyclic amide linker)
Conditions: conjugation step, UPLC

Substance: H-Ser-Val-Ser-Glu-Ile-Gln-Leu-Met-His-Asn-Leu-Gly-Lys-His-Leu-Asn-Ser-Met-Glu-Arg-Val-Glu-Trp-Leu-Arg-Lys-Lys-Leu-Gln-Asp-Val-His-Asn-Phe-Cys(succinimido-propionylamino-PEG36-propionyl-aminopropyl-25-hydroxy-Vitamin D)-NH2
- final HPLC purity (acetate salt): 90.8%
- final HPLC purity (carbonate salt): 80.05%
